According to the supplement of paper PMC12067093, “Discovery and optimisation of a covalent ligand for TRIM25 and its application to targeted protein ubiquitination” (Chemical Science, 2025):
This is one part of the list.

Sequences of proteins named here, by UniProt entry; tags and fusion partners are left off. A change or cut given only in a name is not applied to a line headed by its entry.
UniProt P52429: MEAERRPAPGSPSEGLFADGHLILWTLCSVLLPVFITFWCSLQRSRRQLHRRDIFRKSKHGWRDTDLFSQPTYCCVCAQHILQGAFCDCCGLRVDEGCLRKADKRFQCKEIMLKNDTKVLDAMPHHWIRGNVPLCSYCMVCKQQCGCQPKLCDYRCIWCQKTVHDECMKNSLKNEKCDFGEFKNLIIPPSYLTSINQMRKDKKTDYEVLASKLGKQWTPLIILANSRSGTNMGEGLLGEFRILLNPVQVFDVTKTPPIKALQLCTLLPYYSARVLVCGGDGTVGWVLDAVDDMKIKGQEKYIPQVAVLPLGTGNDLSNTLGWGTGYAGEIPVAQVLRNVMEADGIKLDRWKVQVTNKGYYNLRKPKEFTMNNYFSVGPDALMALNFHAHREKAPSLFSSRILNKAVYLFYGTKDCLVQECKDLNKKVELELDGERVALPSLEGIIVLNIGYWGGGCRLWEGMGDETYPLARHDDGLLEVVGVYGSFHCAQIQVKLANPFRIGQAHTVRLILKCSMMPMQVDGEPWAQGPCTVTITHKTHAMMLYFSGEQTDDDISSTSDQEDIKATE
UniProt A2RUS2: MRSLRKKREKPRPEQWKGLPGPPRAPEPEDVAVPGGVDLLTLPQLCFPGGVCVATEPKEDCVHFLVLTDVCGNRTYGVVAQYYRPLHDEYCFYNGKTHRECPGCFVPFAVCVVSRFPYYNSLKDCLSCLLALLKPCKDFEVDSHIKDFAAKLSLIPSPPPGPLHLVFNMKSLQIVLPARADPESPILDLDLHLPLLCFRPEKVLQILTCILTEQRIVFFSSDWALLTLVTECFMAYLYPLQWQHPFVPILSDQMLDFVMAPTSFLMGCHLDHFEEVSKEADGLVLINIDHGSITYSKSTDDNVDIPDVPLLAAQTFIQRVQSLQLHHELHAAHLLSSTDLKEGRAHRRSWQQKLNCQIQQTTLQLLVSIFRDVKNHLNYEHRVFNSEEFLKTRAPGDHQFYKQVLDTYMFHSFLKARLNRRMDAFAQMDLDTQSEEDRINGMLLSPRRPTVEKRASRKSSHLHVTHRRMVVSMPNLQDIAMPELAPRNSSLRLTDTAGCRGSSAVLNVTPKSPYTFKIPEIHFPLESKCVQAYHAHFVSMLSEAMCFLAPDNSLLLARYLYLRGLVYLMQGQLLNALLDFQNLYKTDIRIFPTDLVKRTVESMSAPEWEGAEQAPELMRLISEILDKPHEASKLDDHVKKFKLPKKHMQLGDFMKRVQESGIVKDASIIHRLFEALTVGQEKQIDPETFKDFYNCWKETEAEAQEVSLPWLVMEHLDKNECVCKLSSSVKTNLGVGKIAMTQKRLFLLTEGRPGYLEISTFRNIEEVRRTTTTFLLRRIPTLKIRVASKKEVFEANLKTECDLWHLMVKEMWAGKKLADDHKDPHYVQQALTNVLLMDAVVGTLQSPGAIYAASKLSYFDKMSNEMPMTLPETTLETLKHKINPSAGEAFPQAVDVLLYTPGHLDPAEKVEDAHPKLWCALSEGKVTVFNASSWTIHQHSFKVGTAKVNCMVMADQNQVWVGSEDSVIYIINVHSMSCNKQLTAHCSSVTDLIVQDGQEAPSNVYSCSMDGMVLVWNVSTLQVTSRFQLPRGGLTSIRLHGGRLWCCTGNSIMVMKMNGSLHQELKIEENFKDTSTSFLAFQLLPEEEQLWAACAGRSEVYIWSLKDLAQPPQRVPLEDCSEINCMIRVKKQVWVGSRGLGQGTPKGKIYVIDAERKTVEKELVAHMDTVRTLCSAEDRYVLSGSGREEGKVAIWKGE
UniProt Q9GZR7: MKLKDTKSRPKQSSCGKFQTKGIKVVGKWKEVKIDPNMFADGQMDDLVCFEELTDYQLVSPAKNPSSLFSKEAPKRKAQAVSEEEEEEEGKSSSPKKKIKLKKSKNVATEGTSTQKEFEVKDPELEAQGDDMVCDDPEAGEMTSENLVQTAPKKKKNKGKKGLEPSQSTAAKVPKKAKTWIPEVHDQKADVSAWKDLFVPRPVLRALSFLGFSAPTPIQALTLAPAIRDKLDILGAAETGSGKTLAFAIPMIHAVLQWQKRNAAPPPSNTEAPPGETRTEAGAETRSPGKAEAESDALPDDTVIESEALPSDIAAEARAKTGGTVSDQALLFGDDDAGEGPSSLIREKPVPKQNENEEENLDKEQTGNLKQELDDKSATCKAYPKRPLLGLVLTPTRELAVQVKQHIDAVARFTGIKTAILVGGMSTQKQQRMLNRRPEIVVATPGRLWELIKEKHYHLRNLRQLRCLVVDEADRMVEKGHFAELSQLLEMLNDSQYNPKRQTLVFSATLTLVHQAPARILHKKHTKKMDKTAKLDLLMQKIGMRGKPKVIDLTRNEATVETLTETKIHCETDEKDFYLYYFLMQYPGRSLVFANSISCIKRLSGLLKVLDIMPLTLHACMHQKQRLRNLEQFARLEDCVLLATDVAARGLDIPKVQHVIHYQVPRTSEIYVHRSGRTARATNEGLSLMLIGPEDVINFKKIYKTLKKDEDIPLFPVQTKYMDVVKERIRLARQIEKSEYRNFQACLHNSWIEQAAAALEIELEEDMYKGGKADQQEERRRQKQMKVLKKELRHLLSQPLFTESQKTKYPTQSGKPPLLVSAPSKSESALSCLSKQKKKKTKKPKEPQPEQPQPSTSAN
UniProt Q9Y315: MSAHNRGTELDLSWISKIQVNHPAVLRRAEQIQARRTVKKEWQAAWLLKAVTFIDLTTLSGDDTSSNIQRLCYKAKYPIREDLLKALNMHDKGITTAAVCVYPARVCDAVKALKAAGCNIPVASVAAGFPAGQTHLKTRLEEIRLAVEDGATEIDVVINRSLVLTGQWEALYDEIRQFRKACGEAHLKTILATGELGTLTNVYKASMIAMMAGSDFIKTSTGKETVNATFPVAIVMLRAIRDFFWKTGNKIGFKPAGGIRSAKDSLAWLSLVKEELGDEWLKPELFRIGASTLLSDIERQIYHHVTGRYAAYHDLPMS
UniProt Q9UHI6: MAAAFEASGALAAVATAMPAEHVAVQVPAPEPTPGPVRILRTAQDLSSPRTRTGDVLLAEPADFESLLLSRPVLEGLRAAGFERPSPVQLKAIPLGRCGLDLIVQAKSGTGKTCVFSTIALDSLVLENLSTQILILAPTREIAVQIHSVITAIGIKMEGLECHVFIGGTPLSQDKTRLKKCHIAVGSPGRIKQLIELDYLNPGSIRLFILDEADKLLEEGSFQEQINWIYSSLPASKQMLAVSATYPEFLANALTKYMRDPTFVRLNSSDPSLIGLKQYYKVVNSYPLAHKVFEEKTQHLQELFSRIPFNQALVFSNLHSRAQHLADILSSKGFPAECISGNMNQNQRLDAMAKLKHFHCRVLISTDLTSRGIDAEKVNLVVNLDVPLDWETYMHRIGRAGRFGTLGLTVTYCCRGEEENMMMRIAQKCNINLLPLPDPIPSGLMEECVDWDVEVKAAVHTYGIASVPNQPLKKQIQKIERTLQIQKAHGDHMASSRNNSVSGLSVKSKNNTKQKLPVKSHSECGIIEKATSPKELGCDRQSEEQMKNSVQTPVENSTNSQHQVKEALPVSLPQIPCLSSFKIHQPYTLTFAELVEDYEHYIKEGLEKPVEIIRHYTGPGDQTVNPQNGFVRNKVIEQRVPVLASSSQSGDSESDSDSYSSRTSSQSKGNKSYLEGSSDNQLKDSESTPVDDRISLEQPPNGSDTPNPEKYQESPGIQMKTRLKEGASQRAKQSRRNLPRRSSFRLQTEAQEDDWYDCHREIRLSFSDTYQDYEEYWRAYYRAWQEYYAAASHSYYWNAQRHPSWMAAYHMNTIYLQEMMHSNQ
UniProt Q16531, whole entry, looked up: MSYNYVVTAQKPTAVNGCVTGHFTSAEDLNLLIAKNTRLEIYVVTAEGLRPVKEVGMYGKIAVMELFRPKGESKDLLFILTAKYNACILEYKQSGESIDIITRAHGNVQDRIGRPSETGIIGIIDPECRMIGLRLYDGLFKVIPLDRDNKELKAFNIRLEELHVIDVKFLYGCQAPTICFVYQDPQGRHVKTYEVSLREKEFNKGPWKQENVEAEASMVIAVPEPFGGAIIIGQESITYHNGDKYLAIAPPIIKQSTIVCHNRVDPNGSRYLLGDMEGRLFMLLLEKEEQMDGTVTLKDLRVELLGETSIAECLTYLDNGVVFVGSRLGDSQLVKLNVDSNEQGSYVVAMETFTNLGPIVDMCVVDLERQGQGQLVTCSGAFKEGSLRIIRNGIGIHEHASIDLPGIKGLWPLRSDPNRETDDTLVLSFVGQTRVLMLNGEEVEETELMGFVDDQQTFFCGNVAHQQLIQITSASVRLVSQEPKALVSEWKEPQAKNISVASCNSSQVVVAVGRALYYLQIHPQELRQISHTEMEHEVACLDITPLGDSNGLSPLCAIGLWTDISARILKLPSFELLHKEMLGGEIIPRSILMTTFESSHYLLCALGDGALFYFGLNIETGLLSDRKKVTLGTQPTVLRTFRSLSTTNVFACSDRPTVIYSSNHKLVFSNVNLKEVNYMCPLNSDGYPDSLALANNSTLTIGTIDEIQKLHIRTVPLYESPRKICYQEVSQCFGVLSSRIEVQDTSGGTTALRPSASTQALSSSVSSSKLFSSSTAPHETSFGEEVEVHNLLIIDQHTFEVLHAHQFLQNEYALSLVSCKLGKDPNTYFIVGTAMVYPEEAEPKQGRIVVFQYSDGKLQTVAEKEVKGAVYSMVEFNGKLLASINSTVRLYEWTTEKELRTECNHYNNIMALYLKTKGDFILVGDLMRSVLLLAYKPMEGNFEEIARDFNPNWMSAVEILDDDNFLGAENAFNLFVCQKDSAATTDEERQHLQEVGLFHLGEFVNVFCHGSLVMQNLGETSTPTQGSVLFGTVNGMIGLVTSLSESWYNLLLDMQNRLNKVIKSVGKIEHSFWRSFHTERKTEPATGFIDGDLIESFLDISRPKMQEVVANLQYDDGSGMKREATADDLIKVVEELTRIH
UniProt Q9NR30: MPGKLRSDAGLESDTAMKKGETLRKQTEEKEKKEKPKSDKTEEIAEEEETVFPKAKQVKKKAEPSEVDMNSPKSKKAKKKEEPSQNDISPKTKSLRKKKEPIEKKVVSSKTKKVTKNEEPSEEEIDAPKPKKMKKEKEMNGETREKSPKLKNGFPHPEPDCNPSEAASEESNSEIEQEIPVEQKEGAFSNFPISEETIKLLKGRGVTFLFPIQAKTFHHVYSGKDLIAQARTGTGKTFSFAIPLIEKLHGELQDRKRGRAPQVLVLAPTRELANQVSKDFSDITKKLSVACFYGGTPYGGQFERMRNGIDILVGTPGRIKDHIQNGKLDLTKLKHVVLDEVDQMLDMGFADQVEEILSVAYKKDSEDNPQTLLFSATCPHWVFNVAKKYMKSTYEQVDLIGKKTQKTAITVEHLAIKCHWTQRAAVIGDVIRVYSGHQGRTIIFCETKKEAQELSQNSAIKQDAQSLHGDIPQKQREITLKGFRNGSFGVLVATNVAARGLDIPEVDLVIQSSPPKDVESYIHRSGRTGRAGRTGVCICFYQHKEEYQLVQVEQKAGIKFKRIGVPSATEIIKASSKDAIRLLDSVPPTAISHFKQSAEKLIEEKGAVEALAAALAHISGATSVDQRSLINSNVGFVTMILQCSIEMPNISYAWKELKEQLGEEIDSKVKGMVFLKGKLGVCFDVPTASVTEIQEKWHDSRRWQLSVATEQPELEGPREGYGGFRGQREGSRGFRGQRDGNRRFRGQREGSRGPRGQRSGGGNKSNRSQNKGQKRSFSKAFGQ
UniProt Q7Z3D6: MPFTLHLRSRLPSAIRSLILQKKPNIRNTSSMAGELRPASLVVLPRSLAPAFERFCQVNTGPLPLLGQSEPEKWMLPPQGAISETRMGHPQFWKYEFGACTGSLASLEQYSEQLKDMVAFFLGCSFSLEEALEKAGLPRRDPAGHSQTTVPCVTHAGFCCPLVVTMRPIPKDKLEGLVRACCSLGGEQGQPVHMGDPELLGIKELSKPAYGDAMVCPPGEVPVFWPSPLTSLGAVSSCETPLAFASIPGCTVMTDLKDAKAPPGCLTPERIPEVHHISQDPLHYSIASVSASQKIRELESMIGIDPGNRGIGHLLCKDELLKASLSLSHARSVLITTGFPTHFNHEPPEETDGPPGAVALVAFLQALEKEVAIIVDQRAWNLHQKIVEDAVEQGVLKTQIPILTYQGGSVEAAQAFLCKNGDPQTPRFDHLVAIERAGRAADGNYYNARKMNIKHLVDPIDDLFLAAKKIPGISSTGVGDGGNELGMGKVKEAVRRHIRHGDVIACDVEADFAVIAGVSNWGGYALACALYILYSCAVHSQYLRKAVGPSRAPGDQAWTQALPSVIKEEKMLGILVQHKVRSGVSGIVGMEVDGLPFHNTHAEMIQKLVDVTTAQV

These targets were tested with Cc1cc(ccc1-c1ccccc1)C(=O)N1CCCN(CC1)C(=O)CCl [compound 10] (assay: probe-labelled cysteine peptide fold change vs DMSO (competition) (log2 fold change); higher = less target engagement (more negative = stronger competition)). Settings: 10 µM; THP-1; incubation time: 4 h.
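Further: competitive profiling in live THP-1 cells: cysteine peptides tagged with an iodoacetamide desthiobiotin (IA-DTB) probe, intensity after compound treatment relative to DMSO-treated cells.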

Row | Target | probe-labelled cysteine peptide fold change
1 | DENND4B_O75064_165_AAEGAGLHALGITDLCLVLPSK (UniProt O75064) | 0.381
2 | DGKE_P52429_167_TVHDECMK (UniProt P52429) | -0.082
3 | DENND3_A2RUS2_61_EDCVHFLVLTDVCGNR (UniProt A2RUS2) | 0.111
4 | DDX24_Q9GZR7_467_CLVVDEADR (UniProt Q9GZR7) | 0.0794
5 | DDX42_Q86XP3_333_ELEPGDGPIAVIVCPTR (UniProt Q86XP3) | -0.0523
6 | DDX24_Q9GZR7_570_IHCETDEK (UniProt Q9GZR7) | -0.15
7 | DDX54_Q8TDD1_389_CSTLIVTDLAAR (UniProt Q8TDD1) | 0.1
8 | DHCR24_Q15392_474_SVHGFQMLYADCYMNREEFWEMFDGSLYHK (UniProt Q15392) | 0.0843
9 | DENND3_A2RUS2_723_NECVCK (UniProt A2RUS2) | 0.0378
10 | DDX52_Q9Y2R4_59_SVPGVCGASQTHQKPQNGEK (UniProt Q9Y2R4) | -0.155
11 | DDX60_Q8IY21_857_HDALNCQVLITVPACFEILLLAPHR (UniProt Q8IY21) | -0.185
12 | DERA_Q9Y315_118_AAGCNIPVASVAAGFPAGQTHLK (UniProt Q9Y315) | 0.00564
13 | DDX17_Q92841_199_PVFAFHHANFPQYVMDVLMDQHFTEPTPIQCQGFPLALSGR (UniProt Q92841) | 0.131
14 | DHRS7_Q9Y394_147_SLCMDTSLDVYRK (UniProt Q9Y394) | -0.112
15 | DDX20_Q9UHI6_181_CHIAVGSPGR (UniProt Q9UHI6) | 0.143
16 | DGKA_P23743_253_ALPCEVSTYAK (UniProt P23743) | -0.145
17 | DENND4C_Q5VZ89_1086_ILTAALTCPK (UniProt Q5VZ89) | -0.274
18 | DDX39A_O00148_74_AIVDCGFEHPSEVQHECIPQAILGMDVLCQAK (UniProt O00148) | 0.0209

Row | Target | probe-labelled cysteine peptide fold change
19 | DDX46_Q7L014_646_ASYPCMSLHGGIDQYDRDSIINDFK (UniProt Q7L014) | -0.0189
20 | DDX17_Q92841_447_DGWPAMCIHGDK (UniProt Q92841) | -0.193
21 | DDB1_Q16531_652_SLSTTNVFACSDRPTVIYSSNHK (UniProt Q16531) | 0.0765
22 | DDX5_P17844_89_GHNCPKPVLNFYEANFPANVMDVIAR (UniProt P17844) | -0.207
23 | DDX17_Q92841_166_GGDVCPKPVFAFHHANFPQYVMDVLMDQHFTEPTPIQCQGFPLALSGR (UniProt Q92841) | -0.0129
24 | DGKZ_Q13574_905_WCFLDATTASR (UniProt Q13574) | -0.051
25 | DDX21_Q9NR30_291_KLSVACFYGGTPYGGQFER (UniProt Q9NR30) | -0.199
26 | DDX50_Q9BQ39_490_TGICICFYQPR (UniProt Q9BQ39) | -0.017
27 | DDX58_O95786_278_TFVSLLICEHHLK (UniProt O95786) | 0.188
28 | DDX20_Q9UHI6_98_CGLDLIVQAK (UniProt Q9UHI6) | -0.0986
29 | DDX60L_Q5H9U9_1671_DFAFNIQAISDSLSELCENKR (UniProt Q5H9U9) | 0.277
30 | DEPTOR_Q8TB45_102_GIIHHVCDEHK (UniProt Q8TB45) | -0.156
31 | DDX10_Q13206_392_GLDFPAVNWVLQFDCPEDANTYIHR (UniProt Q13206) | 0.0564
32 | DGLUCY_Q7Z3D6_418_TQIPILTYQGGSVEAAQAFLCK (UniProt Q7Z3D6) | -0.179
33 | DDX39A_O00148_62+86_AIVDCGFEHPSEVQHECIPQAILGMDVLCQAK (UniProt O00148) | 0.358
34 | DDB1_Q16531_378_QGQGQLVTCSGAFK (UniProt Q16531) | 0.138
35 | DDX56_Q9NY93_518_KLSSSCR (UniProt Q9NY93) | -0.355
